Results are given in words; binding and its absence hold for the method and conditions named. In cells and extracts the contact can be indirect. Here binding means that the protein was enriched with, or labelled near, the bait; the list need not be complete.
B1: alcohol dehydrogenase [NADP(+)] (protein, UniProt P14550 1-325)
chain: MAASCVLLHTGQKMPLIGLGTWKSEPGQVKAAVKYALSVGYRHIDCAAIYGNEPEIGEALKEDVGPGKAVPREELFVTSKLWNTKHHPEDVEPALRKTLADLQLEYLDLYLMHWPYAFERGDNPFPKNADGTICYDSTHYKETWKALEALVAKGLVQALGLSNFNSRQIDDILSVASVRPAVLQVECHPYLAQNELIAHCQARGLEVTAYSPLGSSDRAWRDPDEPVLLEEPVVLALAEKYGRSPAQILLRWQVQRKVICIPKSITPSRILQNIKVFDFTFSPEEMKQLNALNKNWRYIVPMLTVDGKRVPRDAGHPLYPFNDPY
B2: mitochondrial import inner membrane translocase subunit Tim13 (protein, UniProt Q9Y5L4 1-95)
chain: MEGGFGSDFGGSGSGKLDPGLIMEQVKVQIAVANAQELLQRMTDKCFRKCIGKPGGSLDNSEQKCIAMCMDRYMDAWNTVSRAYNSRLQRERANM
B3: long-chain specific acyl-CoA dehydrogenase, mitochondrial (protein, UniProt P28330 31-430)
chain: GGEERLETPSAKKLTDIGIRRIFSPEHDIFRKSVRKFFQEEVIPHHSEWEKAGEVSREVWEKAGKQGLLGVNIAEHLGGIGGDLYSAAIVWEEQAYSNCSGPGFSIHSGIVMSYITNHGSEEQIKHFIPQMTAGKCIGAIAMTEPGAGSDLQGIKTNAKKDGSDWILNGSKVFISNGSLSDVVIVVAVTNHEAPSPAHGISLFLVENGMKGFIKGRKLHKMGLKAQDTAELFFEDIRLPASALLGEENKGFYYIMKELPQERLLIADVAISASEFMFEETRNYVKQRKAFGKTVAHLQTVQHKLAELKTHICVTRAFVDNCLQLHEAKRLDSATACMAKYWASELQNSVAYDCVQLHGGWGYMWEYPIAKAYVDARVQPIYGGTNEIMKELIAREIVFDK
B4: mitochondrial 2-oxoglutarate/malate carrier protein isoform 1 (protein, UniProt Q02978 1-314)
chain: MAATASAGAGGIDGKPRTSPKSVKFLFGGLAGMGATVFVQPLDLVKNRMQLSGEGAKTREYKTSFHALTSILKAEGLRGIYTGLSAGLLRQATYTTTRLGIYTVLFERLTGADGTPPGFLLKAVIGMTAGATGAFVGTPAEVALIRMTADGRLPADQRRGYKNVFNALIRITREEGVLTLWRGCIPTMARAVVVNAAQLASYSQSKQFLLDSGYFSDNILCHFCASMISGLVTTAASMPVDIAKTRIQNMRMIDGKPEYKNGLDVLFKVVRYEGFFSLWKGFTPYYARLGPHTVLTFIFLEQMNKAYKRLFLSG
B5: hydroxymethylglutaryl-CoA synthase, mitochondrial isoform 1 (protein, UniProt P54868 38-508)
chain: TASAVPLAKTDTWPKDVGILALEVYFPAQYVDQTDLEKYNNVEAGKYTVGLGQTRMGFCSVQEDINSLCLTVVQRLMERIQLPWDSVGRLEVGTETIIDKSKAVKTVLMELFQDSGNTDIEGIDTTNACYGGTASLFNAANWMESSSWDGRYAMVVCGDIAVYPSGNARPTGGAGAVAMLIGPKAPLALERGLRGTHMENVYDFYKPNLASEYPIVDGKLSIQCYLRALDRCYTSYRKKIQNQWKQAGSDRPFTLDDLQYMIFHTPFCKMVQKSLARLMFNDFLSASSDTQTSLYKGLEAFGGLKLEDTYTNKDLDKALLKASQDMFDKKTKASLYLSTHNGNMYTSSLYGCLASLLSHHSAQELAGSRIGAFSYGSGLAASFFSFRVSQDAAPGSPLDKLVSSTSDLPKRLASRKCVSPEEFTEIMNQREQFYHKVNFSPPGDTNSLFPGTWYLERVDEQHRRKYARRPV

Amino acid sequences for entries named in this document (tags omitted). Residues count along the entry.
UniProt O75306, residues 34-463: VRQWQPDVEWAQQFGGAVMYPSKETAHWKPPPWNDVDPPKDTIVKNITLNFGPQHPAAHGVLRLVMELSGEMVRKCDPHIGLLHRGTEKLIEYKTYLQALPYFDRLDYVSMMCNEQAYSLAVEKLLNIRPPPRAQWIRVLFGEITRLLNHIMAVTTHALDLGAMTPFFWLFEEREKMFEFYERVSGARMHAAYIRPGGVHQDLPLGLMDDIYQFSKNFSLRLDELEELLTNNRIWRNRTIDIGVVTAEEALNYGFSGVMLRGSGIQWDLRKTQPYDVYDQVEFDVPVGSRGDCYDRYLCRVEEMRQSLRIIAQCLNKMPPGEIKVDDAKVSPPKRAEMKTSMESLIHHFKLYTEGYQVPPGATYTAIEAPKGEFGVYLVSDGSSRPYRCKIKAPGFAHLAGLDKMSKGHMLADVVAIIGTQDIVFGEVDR
UniProt O14818: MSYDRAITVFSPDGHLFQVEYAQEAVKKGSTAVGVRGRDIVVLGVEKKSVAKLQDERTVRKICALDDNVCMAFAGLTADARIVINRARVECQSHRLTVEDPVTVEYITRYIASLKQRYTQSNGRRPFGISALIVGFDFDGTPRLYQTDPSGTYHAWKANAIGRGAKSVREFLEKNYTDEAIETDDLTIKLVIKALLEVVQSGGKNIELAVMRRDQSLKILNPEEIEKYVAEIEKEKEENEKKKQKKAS
UniProt Q8WVM0, residues 28-346: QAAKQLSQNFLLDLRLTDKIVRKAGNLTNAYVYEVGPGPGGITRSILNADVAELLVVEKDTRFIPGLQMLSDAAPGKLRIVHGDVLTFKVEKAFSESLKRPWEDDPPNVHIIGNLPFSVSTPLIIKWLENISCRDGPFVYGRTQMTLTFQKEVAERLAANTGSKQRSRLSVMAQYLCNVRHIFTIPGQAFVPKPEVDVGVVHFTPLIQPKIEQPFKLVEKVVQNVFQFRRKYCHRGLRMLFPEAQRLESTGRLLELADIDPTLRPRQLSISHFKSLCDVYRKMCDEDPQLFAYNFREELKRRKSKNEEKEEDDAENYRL

These molecules were tested against NDUFS2, bait of the co-IP for protein mass spectrometry (UniProt O75306) (assay: affinity purification with mass spectrometry; co-IP to capture NDUFS2 interactors, precipitate analysed by protein mass spectrometry; cells not stated (pancreatic cancer; legend of Fig. 3A: after overexpression of NDUFS2)).

binding, binds:
proteasome subunit alpha type-7 (from UniProt O14818 1-248)
dimethyladenosine transferase 1, mitochondrial (from UniProt Q8WVM0 28-346)
B1
B2
B3
B4
B5
